Test results as given in the supplement of paper PMC11006884.
Shown are results outside the selection of targets with a hit, which stands elsewhere. The data scatter; read single values as rough. Only a part is listed here, and it is no random draw.

Compound: COC(=O)/C=C/c1ccccc1 [methyl cinnamate]
Test: log2 ratio of iodoacetamide-alkyne labeling of the cysteine site, DMSO over compound (competition); higher = stronger covalent engagement of the cysteine by the compound, active = 1 or more
Settings: 500 µM; treatment time 1 h; system: HEK293T cell lysate
Outline: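 After 1 h at ambient temperature with vehicle or electrophile (500 µM), HEK293T lysate (2 mg/mL) was labelled for 1 h with iodoacetamide alkyne and clicked to sCIP-TMT reagents. Pooled samples were trypsin-digested overnight at 37 °C, streptavidin-enriched, acid-eluted and analysed by Orbitrap Eclipse LC-MS/MS with FAIMS, then quantified in FragPipe over three replicates with duplicate channels. A cysteine's log2 competition ratio is its mean control-channel over mean compound-channel reporter intensity. Cysteines quantified in only one replicate were not included.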

Target: TRIM28 C232 (UniProt Q13263)
- log2 ratio of iodoacetamide-alkyne labeling: inactive: -0.0783

Target: LAMTOR4 C51 (UniProt Q0VGL1)
- log2 ratio of iodoacetamide-alkyne labeling: inactive: 0.132

Target: UniProt Q13243_C63
- log2 ratio of iodoacetamide-alkyne labeling: inactive: 0.0385

Target: ACACA C1297 (UniProt Q13085)
- log2 ratio of iodoacetamide-alkyne labeling: inactive: 0.0974

Target: CSTF1 C178 (UniProt Q05048)
- log2 ratio of iodoacetamide-alkyne labeling: inactive: -0.117

Target: BPTF C1357 (UniProt Q12830)
- log2 ratio of iodoacetamide-alkyne labeling: inactive: 0.139

Target: PRDX1 C83 (UniProt Q06830)
- log2 ratio of iodoacetamide-alkyne labeling: inactive: 0.0489

Target: PSMD2 C251 (UniProt Q13200)
- log2 ratio of iodoacetamide-alkyne labeling: inactive: 0.222

Target: UniProt Q13131_C238
- log2 ratio of iodoacetamide-alkyne labeling: inactive: 0.0564

Target: PPIG C10 (UniProt Q13427)
- log2 ratio of iodoacetamide-alkyne labeling: inactive: 0.135

Target: DHX9 C242 (UniProt Q08211)
- log2 ratio of iodoacetamide-alkyne labeling: inactive: -0.0444

Target: SSRP1 C200 (UniProt Q08945)
- log2 ratio of iodoacetamide-alkyne labeling: inactive: 0.196

Target: TRIM28 C124 (UniProt Q13263)
- log2 ratio of iodoacetamide-alkyne labeling: inactive: 0.0665

Target: COASY C140 (UniProt Q13057)
- log2 ratio of iodoacetamide-alkyne labeling: inactive: 0.134

Target: GFPT1 C55 (UniProt Q06210)
- log2 ratio of iodoacetamide-alkyne labeling: inactive: 0.0635

Target: BPTF C20 (UniProt Q12830)
- log2 ratio of iodoacetamide-alkyne labeling: inactive: 0.0642

Target: TARDBP C244 (UniProt Q13148)
- log2 ratio of iodoacetamide-alkyne labeling: inactive: 0.202

Target: EIF4G1 C819 (UniProt Q04637)
- log2 ratio of iodoacetamide-alkyne labeling: inactive: 0.0622

Target: EIF4G1 C934 (UniProt Q04637)
- log2 ratio of iodoacetamide-alkyne labeling: inactive: 0.0434

Target: UBE2V1 C144 (UniProt Q13404)
- log2 ratio of iodoacetamide-alkyne labeling: inactive: 0.216

Target: CAMSAP2 C1416 (UniProt Q08AD1)
- log2 ratio of iodoacetamide-alkyne labeling: inactive: 0.14
